Measurements reported in article PMC4958977, “Revisiting the mechanism of coagulation factor XIII activation and regulation from a structure/functional perspective” (Scientific Reports, 2016).
These are yes or no findings as the source states them, for the method shown. A result given as binding can be weak or reduced; the word gives no strength.

Sequences of proteins named here, by UniProt entry; tags and fusion partners are left off. A change or cut given only in a name is not applied to a line headed by its entry.
UniProt P00488: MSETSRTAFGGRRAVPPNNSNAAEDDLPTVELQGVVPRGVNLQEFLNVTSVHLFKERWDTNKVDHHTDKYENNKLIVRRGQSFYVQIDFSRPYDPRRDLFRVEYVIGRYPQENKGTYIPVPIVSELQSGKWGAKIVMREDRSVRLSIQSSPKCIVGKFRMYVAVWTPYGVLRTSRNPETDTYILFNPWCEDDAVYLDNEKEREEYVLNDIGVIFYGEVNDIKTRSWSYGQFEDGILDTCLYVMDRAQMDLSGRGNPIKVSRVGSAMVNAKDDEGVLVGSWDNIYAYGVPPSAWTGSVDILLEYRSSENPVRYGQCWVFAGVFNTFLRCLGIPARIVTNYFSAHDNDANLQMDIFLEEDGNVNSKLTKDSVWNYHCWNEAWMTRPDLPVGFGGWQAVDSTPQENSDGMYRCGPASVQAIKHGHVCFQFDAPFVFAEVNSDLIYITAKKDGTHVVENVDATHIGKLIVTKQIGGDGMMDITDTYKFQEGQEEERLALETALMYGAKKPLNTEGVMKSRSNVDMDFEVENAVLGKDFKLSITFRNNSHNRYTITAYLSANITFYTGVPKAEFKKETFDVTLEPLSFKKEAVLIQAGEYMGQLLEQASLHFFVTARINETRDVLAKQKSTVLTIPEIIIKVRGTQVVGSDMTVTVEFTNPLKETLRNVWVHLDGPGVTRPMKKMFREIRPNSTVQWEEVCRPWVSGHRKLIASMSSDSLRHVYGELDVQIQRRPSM

Molecular target: coagulation factor XIII A subunit (zymogenic, in the plasma FXIIIA2B2 heterotetramer) (human) (UniProt P00488)
Experiment: SEC; purified FXIIIA2B2 from Fibrogammin P, without thrombin, 0-25 mM CaCl2, 20 mM Tris, 120 mM NaCl, pH 7.4, 60 minutes at 30 degrees; Superdex 200; peaks checked by native PAGE and mass spectrometry; the partners were purified together as the complex; both purified

B1: coagulation factor XIII B subunit (natural protein, human, UniProt P05160 21-661, looked up)
chain: EEKPCGFPHVENGRIAQYYYTFKSFYFPMSIDKKLSFFCLAGYTTESGRQEEQTTCTTEGWSPEPRCFKKCTKPDLSNGYISDVKLLYKIQENMRYGCASGYKTTGGKDEEVVQCLSDGWSSQPTCRKEHETCLAPELYNGNYSTTQKTFKVKDKVQYECATGYYTAGGKKTEEVECLTYGWSLTPKCTKLKCSSLRLIENGYFHPVKQTYEEGDVVQFFCHENYYLSGSDLIQCYNFGWYPESPVCEGRRNRCPPPPLPINSKIQTHSTTYRHGEIVHIECELNFEIHGSAEIRCEDGKWTEPPKCIEGQEKVACEEPPFIENGAANLHSKIYYNGDKVTYACKSGYLLHGSNEITCNRGKWTLPPECVENNENCKHPPVVMNGAVADGILASYATGSSVEYRCNEYYLLRGSKISRCEQGKWSSPPVCLEPCTVNVDYMNRNNIEMKWKYEGKVLHGDLIDFVCKQGYDLSPLTPLSELSVQCNRGEVKYPLCTRKESKGMCTSPPLIKHGVIISSTVDTYENGSSVEYRCFDHHFLEGSREAYCLDGMWTTPPLCLEPCTLSFTEMEKNNLLLKWDFDNRPHILHGEYIEFICRGDTYPAELYITGSILRMQCDRGQLKYPRCIPRQSTLSYQEPLRT
notes: human coagulation factor XIII B subunit from plasma, ten Sushi domains; 80 kDa; also called FXIIIB; FXIIIB2; source: purified as FXIIIA2B2 from plasma concentrate Fibrogammin P (CSL Behring), gel filtration on Superdex 200
**Q.** For B1, which binding is on record?
**A.** binds
